According to patent US20190367964A1, “DISSOCIATION OF HUMAN TUMOR TO SINGLE CELL SUSPENSION FOLLOWED BY BIOLOGICAL ANALYSIS” (DANA-FARBER CANCER INSTITUTE, INC., priority 2016, published 2019):
For at least one compound, name, drawing or mass did not settle the structure.

How the values were obtained:
[1] = tested on: WM88, MELHO, COL0679 and SKMEL28; experiment: Multiplexed single-cell immunofluorescence, AXL-high cell fraction; assay type: cell-based; details: cell lines with baseline low fraction of AXL-expressing cells; 5 or 10 days, increasing doses
BRAFv600E melanoma = tested on: BRAFv600E melanoma; set-up: key to Best response, RECIST category: CR=complete response; PR=partial response; SD=stable disease; details: individual patients with BRAFv600E melanoma, one table row per patient (Patient ID 1-6), cited from earlier work

**Q.** For CCCS(=O)(=O)Nc1ccc(F)c(C(=O)c2c[nH]c3ncc(-c4ccc(Cl)cc4)cc23)c1F [Vemurafenib, vemurafenib], which “AXL-high cell fraction relative to DMSO” value [1] is on record?
**A.** significant dose-dependent increase

**Q.** And the “Best response (in % by RECIST criteria)” value (BRAFv600E melanoma; paired pre-treatment and post-relapse biopsies)?
**A.** −51%

**Q.** And the “Best response, RECIST category” value (BRAFv600E melanoma)?
**A.** PR
